The structures given here were assigned with low confidence; some may be wrong.
Assays:
Format in all cases: biochemical
[1] = molecular target: PDE5A (Homo sapiens, UniProt O76074); test: PDE enzyme activity assay (HTRF cGMP), PDE5A; conditions: read-out: PDE5A1 inhibition (IC50); recombinant enzyme
[2] = molecular target: HDAC1 (Homo sapiens, UniProt Q13547); test: HDAC enzyme activity assay (fluorogenic substrate), HDAC1; conditions: read-out: HDAC1 inhibition (IC50); recombinant enzyme
[3] = molecular target: PDE9A isoform b (Homo sapiens, UniProt O76083); test: PDE enzyme activity assay (HTRF cGMP), PDE9A; conditions: read-out: PDE9A inhibition (IC50); recombinant enzyme

Chains of the proteins cited; added tags and fusions are not shown. Residues count along the entry.
UniProt Q13547, whole entry: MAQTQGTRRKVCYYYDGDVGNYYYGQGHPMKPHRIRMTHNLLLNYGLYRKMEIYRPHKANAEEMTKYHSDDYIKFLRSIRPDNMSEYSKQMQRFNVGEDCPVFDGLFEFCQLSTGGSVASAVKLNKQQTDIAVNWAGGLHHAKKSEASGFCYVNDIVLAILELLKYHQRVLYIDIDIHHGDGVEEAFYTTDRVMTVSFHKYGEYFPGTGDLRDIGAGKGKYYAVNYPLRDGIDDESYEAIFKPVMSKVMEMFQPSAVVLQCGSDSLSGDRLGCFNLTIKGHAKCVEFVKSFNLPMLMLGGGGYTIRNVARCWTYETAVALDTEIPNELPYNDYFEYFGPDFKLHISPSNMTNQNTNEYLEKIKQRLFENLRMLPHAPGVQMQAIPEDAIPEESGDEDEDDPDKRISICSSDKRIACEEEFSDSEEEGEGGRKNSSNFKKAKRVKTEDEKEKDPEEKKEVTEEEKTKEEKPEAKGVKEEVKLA
UniProt O76083, 1-533 isoform 2: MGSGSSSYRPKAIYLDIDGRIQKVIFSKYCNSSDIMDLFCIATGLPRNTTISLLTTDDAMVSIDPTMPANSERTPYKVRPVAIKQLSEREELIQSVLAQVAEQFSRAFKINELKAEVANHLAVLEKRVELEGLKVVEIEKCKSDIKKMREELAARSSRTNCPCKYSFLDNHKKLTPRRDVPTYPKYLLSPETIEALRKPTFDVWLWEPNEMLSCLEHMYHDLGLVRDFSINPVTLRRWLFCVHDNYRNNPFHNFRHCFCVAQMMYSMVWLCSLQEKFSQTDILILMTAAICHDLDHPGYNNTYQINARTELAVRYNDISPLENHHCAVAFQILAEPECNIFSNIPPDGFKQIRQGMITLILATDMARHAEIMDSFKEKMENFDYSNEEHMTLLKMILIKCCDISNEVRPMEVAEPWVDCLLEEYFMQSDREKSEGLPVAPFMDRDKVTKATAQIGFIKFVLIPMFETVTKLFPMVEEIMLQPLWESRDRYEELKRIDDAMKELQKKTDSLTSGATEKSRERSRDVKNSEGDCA

With C[C@@H]1CN(Cc2ccc(/C=C/C(=O)NO)cc2)C[C@H]1c1nc2c(cnn2C2CCOCC2)c(=O)[nH]1 (relative stereo) the IC50 [1] was > 10000 nM, the IC50 [2] was 10 to 1000 nM and the IC50 [3] was < 10 nM.

Source: US9573956B2, “Compounds as dual inhibitors of phosphodiesterases and histone deacetylases” (FUNDACIÓN PARA LA INVESTIGACIÓN MÉDICA APLICADA, priority 2013, dated 2017)
